Values quoted from earlier work as cited in patent US20220401429A1, “USE OF ANAMORELIN TO TREAT CANCER-RELATED FATIGUE” (Helsinn Healthcare SA, priority 2021, published 2022).
At least one structure is not confirmed: it was looked up by name or label, or the drawing left a doubt.

Tested on: patients with advanced cancer
Conditions: cancer related fatigue; cited from earlier work

C[C@@H]1C[C@H]2[C@@H]3CCC4=CC(=O)C=C[C@]4(C)[C@@]3(F)[C@@H](O)C[C@]2(C)[C@@]1(O)C(=O)CO [Dexamethasone]
Improvement in fatigue: clinically significant improvements
